This is one part of the list.
The sequences below were run against T1, OsSMF1 (Oryza sativa, UniProt Q6ZLB0 1-436) (assay: protein-binding microarray (RPBM); PBS, 2% BSA, 51.3 ng/ul salmon testes DNA, 50 uM zinc acetate, 200 nM TF, 25 C, 1 h; high values mean tight binding). Conditions: protein: recombinant; tags: N-terminal polyhistidine and DsRed monomer fusion (pET32a); chain copies: 2; label: CyDye5-dUTP incorporated in the synthesized complementary strand; 3' TTTTT single-stranded linker to array surface; dsDNA, one strand shown.
T1 sequence: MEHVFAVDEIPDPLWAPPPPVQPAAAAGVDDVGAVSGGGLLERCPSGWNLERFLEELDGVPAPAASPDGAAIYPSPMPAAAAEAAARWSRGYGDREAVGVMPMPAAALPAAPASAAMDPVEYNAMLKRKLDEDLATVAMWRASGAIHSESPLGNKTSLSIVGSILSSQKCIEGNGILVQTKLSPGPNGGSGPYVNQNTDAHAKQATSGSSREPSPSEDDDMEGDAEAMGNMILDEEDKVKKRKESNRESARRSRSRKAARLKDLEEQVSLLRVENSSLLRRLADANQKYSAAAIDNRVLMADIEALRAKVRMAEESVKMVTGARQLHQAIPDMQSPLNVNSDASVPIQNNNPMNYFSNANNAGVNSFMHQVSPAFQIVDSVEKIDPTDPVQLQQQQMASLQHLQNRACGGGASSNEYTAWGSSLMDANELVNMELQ
In short: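 Binding signal here means per-feature fluorescence intensity in arbitrary units. The values were read on an Axon 4000B scanner after a custom Agilent array, double-stranded by primer extension with Cy5-dUTP, was incubated with 200 nM protein at 25 °C for 1 h in PBS with 2% BSA, salmon testes DNA and 50 µM zinc acetate, then washed. The proteins were transcription factors with an N-terminal polyhistidine tag and DsRed, expressed in E. coli BL21-CodonPlus and purified on Ni–NTA.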

Sequence | binding signal
GGCGGCGCAGCCCGTCGCCATGGAGGTGGACGGGAAGCCGCGGAGTCACCTAGTGCAG | 3420 fluorescence intensity (a.u.)
GAATGGTGGCTACCTGGCGGTCAGATCATCGGAGCTAAGGCGGAGTCACCTAGTGCAG | 4870 fluorescence intensity (a.u.)
GATTTCTTTCTGCCGTCATCTTCGAATATCCATGACTCGCCGGAGTCACCTAGTGCAG | 3840 fluorescence intensity (a.u.)
GTTTTGTGCCAGGAGTGATGATGAGGATGATGATTATGCACGGAGTCACCTAGTGCAG | 3910 fluorescence intensity (a.u.)
CTCACCACCACCGTCGTCATCGTCGTCGTCACCCTCCTCCCGGAGTCACCTAGTGCAG | 6620 fluorescence intensity (a.u.)
CTCGGCTGTTGCGCCTTCGTTTTGCACCGAGGCTGTGCTACGGAGTCACCTAGTGCAG | 55500 fluorescence intensity (a.u.)
TCGGATCCGTTTTAGCATGCAATATGTAAAAGTGAAAAGACGGAGTCACCTAGTGCAG | 3570 fluorescence intensity (a.u.)
TTTGCATACGTGCATGCTTGATGACGTCATGCTGACGTGGCGGAGTCACCTAGTGCAG | 63100 fluorescence intensity (a.u.)
GTTGAGGTCTCGCGCTCCCGTCCTCGTCTCGTCCTCTCCCCGGAGTCACCTAGTGCAG | 21500 fluorescence intensity (a.u.)
GATGGAGCTCTGCAGATGCTGACACAGCCAGCCACACAGCCGGAGTCACCTAGTGCAG | 8060 fluorescence intensity (a.u.)
GCTTTGCCGTTTGCCACTGTTAAGGGCGTGGCAACAATATCGGAGTCACCTAGTGCAG | 4190 fluorescence intensity (a.u.)
AATTATCTTGAAGCACCTCAACTCAACCTGATGTCATACACGGAGTCACCTAGTGCAG | 4390 fluorescence intensity (a.u.)
GGAGTACCACATAGCCGTTCAGCTCTAGTCAAACGTCATTCGGAGTCACCTAGTGCAG | 3900 fluorescence intensity (a.u.)
CTTTTCTCCCTTCTTTCTCTTTCACGTCATATATGATAATCGGAGTCACCTAGTGCAG | 4910 fluorescence intensity (a.u.)
AGGGAAAAGAGGAGACGGGAGGAAAGGAACGGAGGAGATGCGGAGTCACCTAGTGCAG | 3340 fluorescence intensity (a.u.)
GGGTCATATAGAGACGACGATCAAATTTACCTTATTTTAACGGAGTCACCTAGTGCAG | 3240 fluorescence intensity (a.u.)
AGATTAAGTGGTGGGTGTGCGTGCATGTCTTGAGATCACCCGGAGTCACCTAGTGCAG | 5820 fluorescence intensity (a.u.)
TTTTATTCTCAGATGTTTCTCGAGGTTGTCAGCACAGCAGCGGAGTCACCTAGTGCAG | 4380 fluorescence intensity (a.u.)
GTACATCTGGCGCGGCGGCCACGAGTACATCGGGACGTGGCGGAGTCACCTAGTGCAG | 5440 fluorescence intensity (a.u.)
CATCTGAACAGCGTCTTAATATCTTAAATGGAAAATTGATCGGAGTCACCTAGTGCAG | 30200 fluorescence intensity (a.u.)
AAATGAATTAAGCATGACACATTGACATTTTGTTGACAATCGGAGTCACCTAGTGCAG | 4230 fluorescence intensity (a.u.)
GGATGAATACCATAATTCAGATACGATTTGTGGCATATTCCGGAGTCACCTAGTGCAG | 19300 fluorescence intensity (a.u.)
GCCCTATTAATAACACATGTAATTAAGCCAACACTAATCCCGGAGTCACCTAGTGCAG | 23400 fluorescence intensity (a.u.)
TAGAGGCAAGCACGACCAATGAGGACATAGGGAATGGTTCCGGAGTCACCTAGTGCAG | 9700 fluorescence intensity (a.u.)
ATTTTCTTATCTTTTCATAGACTACGACGTCACCACTATCCGGAGTCACCTAGTGCAG | 6080 fluorescence intensity (a.u.)
TGTGCCGTGACTCGATGTGCTCCTCCATCTCTTGCTGCAACGGAGTCACCTAGTGCAG | 5220 fluorescence intensity (a.u.)
GAGATGGGAGGAGAGCTAGCTAGCCGCCGAGGCTGAGCTCCGGAGTCACCTAGTGCAG | 40600 fluorescence intensity (a.u.)

Reformatted in markdown: part of the list above

| Sequence | binding signal |
| --- | --- |
| AGGGAAAAGAGGAGACGGGAGGAAAGGAACGGAGGAGATGCGGAGTCACCTAGTGCAG | 3340 fluorescence intensity (a.u.) |
| GGGTCATATAGAGACGACGATCAAATTTACCTTATTTTAACGGAGTCACCTAGTGCAG | 3240 fluorescence intensity (a.u.) |
| AGATTAAGTGGTGGGTGTGCGTGCATGTCTTGAGATCACCCGGAGTCACCTAGTGCAG | 5820 fluorescence intensity (a.u.) |
| TTTTATTCTCAGATGTTTCTCGAGGTTGTCAGCACAGCAGCGGAGTCACCTAGTGCAG | 4380 fluorescence intensity (a.u.) |

Following part.

Sequence | binding signal
GCAGGCATTTGGTGAAGGTGAGGTCGACATGGACAGAGAACGGAGTCACCTAGTGCAG | 3160 fluorescence intensity (a.u.)
CCTTAGCATAGCTGTGTATTAGTAACTCGTTCGTGTCCCTCGGAGTCACCTAGTGCAG | 3290 fluorescence intensity (a.u.)
AATATAGTTGCTGATGCGCTGTCCAGGATGCCTGTTATACCGGAGTCACCTAGTGCAG | 3680 fluorescence intensity (a.u.)
CATAATCATGTTAGATCATGACGCTAATGATGTTGGCGCCCGGAGTCACCTAGTGCAG | 4540 fluorescence intensity (a.u.)
ATTACATACATGACTCATATACACAACATGGAATCTACTTCGGAGTCACCTAGTGCAG | 10500 fluorescence intensity (a.u.)
AACACCCCATACGACACCCTATATAATATCCGATGCGACACGGAGTCACCTAGTGCAG | 27800 fluorescence intensity (a.u.)
ACAAGGTTAAGAAATCCAGGTACATTCTACAAAGCTCTCACGGAGTCACCTAGTGCAG | 3450 fluorescence intensity (a.u.)
TATTGGGCCCTACTCTTCAGCGTGACGTGGATGGGGCGCGCGGAGTCACCTAGTGCAG | 11400 fluorescence intensity (a.u.)
TTCGTCGCAATCCAATCGTTCAACGTGTACTTTGATCGCCCGGAGTCACCTAGTGCAG | 3290 fluorescence intensity (a.u.)
AACAACACTCAAGCGCTCATGGAATCAACATGGATTATTTCGGAGTCACCTAGTGCAG | 17900 fluorescence intensity (a.u.)
TCTCTTTCTTTATTTCTTTAAAATATATTTATAGTTGTCTCGGAGTCACCTAGTGCAG | 3490 fluorescence intensity (a.u.)
TTGACCGGATGTCGGAACGAGTTTTCAGACACGAATGAAACGGAGTCACCTAGTGCAG | 21700 fluorescence intensity (a.u.)
TTGTTGGTGTTTCCTCGTCCGCGTCGTCGGTTGCATTCTCCGGAGTCACCTAGTGCAG | 3190 fluorescence intensity (a.u.)
GAGCACCCGAGCATCGGGGTCATGGCGATGCGCGCGTGGACGGAGTCACCTAGTGCAG | 22300 fluorescence intensity (a.u.)
TCTAAGCTAGTCGTGTCCTCATCACTGGCTTCGACCAATACGGAGTCACCTAGTGCAG | 3220 fluorescence intensity (a.u.)
AAGAATACACGTCACGTACACCAGCACATCTAACCCAGTCCGGAGTCACCTAGTGCAG | 13700 fluorescence intensity (a.u.)
TTCTCGCCACATCTTTATGTTAACCACTTACTCCAATTTACGGAGTCACCTAGTGCAG | 4600 fluorescence intensity (a.u.)
CATCCCAAGTTTGAATGTGAAGGTGAGGTCACCACGTAATCGGAGTCACCTAGTGCAG | 4360 fluorescence intensity (a.u.)
CGACGGCAGTTTTCGCTGCGACGAGCCCAGGATGAAGAGGCGGAGTCACCTAGTGCAG | 3420 fluorescence intensity (a.u.)
ACAAGTTGGAGCTACTTTCTTTTGAAATGACAGATCAACTCGGAGTCACCTAGTGCAG | 3250 fluorescence intensity (a.u.)
CAATCTTAGTCATGCATTTATTGTTTTATTTCCTACTGGACGGAGTCACCTAGTGCAG | 3710 fluorescence intensity (a.u.)
AAATGTAAACAATAAACAACCTCAGGTTAGAAAGCTGAGGCGGAGTCACCTAGTGCAG | 3170 fluorescence intensity (a.u.)
GTCTCCTACACCTACGACGACGTCATCTTCCTCCCGGGCTCGGAGTCACCTAGTGCAG | 6900 fluorescence intensity (a.u.)
GAGTTTGAGGAAATCGGGAATAAAATGTCAGCCCCATATTCGGAGTCACCTAGTGCAG | 26300 fluorescence intensity (a.u.)
ATTAATAGTATAGTAAGCAACTATTGTATGAATTGGCTATCGGAGTCACCTAGTGCAG | 3280 fluorescence intensity (a.u.)
GATGACATGTGGGGCCCACGTGGGTCCCACCATTTATTATCGGAGTCACCTAGTGCAG | 4730 fluorescence intensity (a.u.)
GATGTACTCGAGTATCTTCCCCTTCCTAGTTCCTTCCCTTCGGAGTCACCTAGTGCAG | 13900 fluorescence intensity (a.u.)

Reference: PMC7819943, “Rice protein-binding microarrays: a tool to detect cis-acting elements near promoter regions in rice”
